{
  "source": "the supplement of paper PMC8728848",
  "assay_in_all_cases": "glycan array binding signal (z-score within array); higher = stronger binding",
  "settings_in_all_cases": "glycan notation: IUPAC condensed, linker removed",
  "key": {"[1]": {"target": "Neu5Ac(a2-3)GalNAc", "outline": "(§1)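 The binding signal is a Z-score computed within each array. Data were drawn from 3228 arrays in the Consortium for Functional Glycomics database, restricted to those with a known protein sequence. Scores were averaged over arrays of the same protein sequence at different concentrations or buffers, and over linkers, and negative values can be taken as non-binding.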"}, "[2]": {"target": "Neu5Ac(a2-3)GalNAc(b1-4)GlcNAc", "outline": "as §1"}, "[3]": {"target": "Neu5Ac(a2-3)[GalNAc(b1-4)]Gal(b1-4)Glc", "outline": "as §1"}, "[4]": {"target": "Neu5Ac(a2-3)[GalNAc(b1-4)]Gal(b1-4)GlcNAc", "outline": "as §1"}, "[5]": {"target": "Neu5Ac(a2-3)[GalNAc(b1-4)]Gal(b1-4)GlcNAc(b1-3)GalNAc", "outline": "as §1"}, "[6]": {"target": "Neu5Ac(a2-3)[Neu5Ac(a2-6)]GalNAc", "outline": "as §1"}, "[7]": {"target": "Neu5Ac(a2-6)Gal", "outline": "as §1"}, "[8]": {"target": "Neu5Ac(a2-6)Gal(b1-3)GlcNAc(b1-3)[Gal(b1-4)GlcNAc(b1-6)]Gal(b1-4)Glc", "outline": "as §1"}, "[9]": {"target": "Neu5Ac(a2-6)Gal(b1-4)Glc", "outline": "as §1"}, "[10]": {"target": "Neu5Ac(a2-6)Gal(b1-4)GlcNAc", "outline": "as §1"}, "[11]": {"target": "Neu5Ac(a2-6)Gal(b1-4)GlcNAc(b1-2)Man", "outline": "as §1"}, "[12]": {"target": "Neu5Ac(a2-6)Gal(b1-4)GlcNAc(b1-2)Man(a1-3)Man(b1-4)GlcNAc(b1-4)GlcNAc", "outline": "as §1"}, "[13]": {"target": "Neu5Ac(a2-6)Gal(b1-4)GlcNAc(b1-2)Man(a1-3)[Gal(b1-4)GlcNAc(b1-2)Man(a1-6)]Man(b1-4)GlcNAc(b1-4)GlcNAc", "outline": "as §1"}, "[14]": {"target": "Neu5Ac(a2-6)Gal(b1-4)GlcNAc(b1-2)Man(a1-3)[GlcNAc(b1-2)Man(a1-6)]Man(b1-4)GlcNAc(b1-4)GlcNAc", "outline": "as §1"}, "[15]": {"target": "Neu5Ac(a2-6)Gal(b1-4)GlcNAc(b1-2)Man(a1-3)[GlcNAc(b1-4)][Neu5Ac(a2-6)Gal(b1-4)GlcNAc(b1-2)Man(a1-6)]Man(b1-4)GlcNAc(b1-4)GlcNAc", "outline": "as §1"}, "[16]": {"target": "Neu5Ac(a2-6)Gal(b1-4)GlcNAc(b1-2)Man(a1-3)[Man(a1-6)]Man(b1-4)GlcNAc(b1-4)GlcNAc", "outline": "as §1"}, "[17]": {"target": "Neu5Ac(a2-6)Gal(b1-4)GlcNAc(b1-2)Man(a1-3)[Neu5Ac(a2-3)Gal(b1-4)GlcNAc(b1-2)Man(a1-6)]Man(b1-4)GlcNAc(b1-4)GlcNAc", "outline": "as §1"}, "[18]": {"target": "Neu5Ac(a2-6)Gal(b1-4)GlcNAc(b1-2)Man(a1-3)[Neu5Ac(a2-6)Gal(b1-4)GlcNAc(b1-2)Man(a1-6)]Man(b1-4)GlcNAc(b1-4)GlcNAc", "outline": "as §1"}, "[19]": {"target": "Neu5Ac(a2-6)Gal(b1-4)GlcNAc(b1-2)Man(a1-3)[Neu5Ac(a2-6)Gal(b1-4)GlcNAc(b1-2)Man(a1-6)]Man(b1-4)GlcNAc(b1-4)[Fuc(a1-6)]GlcNAc", "outline": "as §1"}, "[20]": {"target": "Neu5Ac(a2-6)Gal(b1-4)GlcNAc(b1-2)Man(a1-6)Man(b1-4)GlcNAc(b1-4)GlcNAc", "outline": "as §1"}, "[21]": {"target": "Neu5Ac(a2-6)Gal(b1-4)GlcNAc(b1-2)Man(a1-6)[Gal(b1-4)GlcNAc(b1-2)Man(a1-3)]Man(b1-4)GlcNAc(b1-4)GlcNAc", "outline": "as §1"}, "[22]": {"target": "Neu5Ac(a2-6)Gal(b1-4)GlcNAc(b1-2)Man(a1-6)[GlcNAc(b1-2)Man(a1-3)]Man(b1-4)GlcNAc(b1-4)GlcNAc", "outline": "as §1"}, "[23]": {"target": "Neu5Ac(a2-6)Gal(b1-4)GlcNAc(b1-2)Man(a1-6)[Man(a1-3)]Man(b1-4)GlcNAc(b1-4)GlcNAc", "outline": "as §1"}, "[24]": {"target": "Neu5Ac(a2-6)Gal(b1-4)GlcNAc(b1-2)[Neu5Ac(a2-6)Gal(b1-4)GlcNAc(b1-4)]Man(a1-3)[GlcNAc(b1-4)][Neu5Ac(a2-6)Gal(b1-4)GlcNAc(b1-2)[Neu5Ac(a2-6)Gal(b1-4)GlcNAc(b1-6)]Man(a1-6)]Man(b1-4)GlcNAc(b1-4)GlcNAc", "outline": "as §1"}, "[25]": {"target": "Neu5Ac(a2-6)Gal(b1-4)GlcNAc(b1-2)[Neu5Ac(a2-6)Gal(b1-4)GlcNAc(b1-4)]Man(a1-3)[GlcNAc(b1-4)][Neu5Ac(a2-6)Gal(b1-4)GlcNAc(b1-4)Man(a1-6)]Man(b1-4)GlcNAc(b1-4)GlcNAc", "outline": "as §1"}, "[26]": {"target": "Neu5Ac(a2-6)Gal(b1-4)GlcNAc(b1-2)[Neu5Ac(a2-6)Gal(b1-4)GlcNAc(b1-6)]Man(a1-6)[Neu5Ac(a2-6)Gal(b1-4)GlcNAc(b1-2)Man(a1-3)][GlcNAc(b1-4)]Man(b1-4)GlcNAc(b1-4)GlcNAc", "outline": "as §1"}, "[27]": {"target": "Neu5Ac(a2-6)Gal(b1-4)GlcNAc(b1-3)Gal(b1-3)GlcNAc", "outline": "as §1"}, "[28]": {"target": "Neu5Ac(a2-6)Gal(b1-4)GlcNAc(b1-3)Gal(b1-4)GlcNAc", "outline": "as §1"}, "[29]": {"target": "Neu5Ac(a2-6)Gal(b1-4)GlcNAc(b1-3)Gal(b1-4)GlcNAc(b1-2)Man(a1-3)[Neu5Ac(a2-6)Gal(b1-4)GlcNAc(b1-3)Gal(b1-4)GlcNAc(b1-2)Man(a1-6)]GalNAc", "outline": "as §1"}, "[30]": {"target": "Neu5Ac(a2-6)Gal(b1-4)GlcNAc(b1-3)Gal(b1-4)GlcNAc(b1-3)Gal(b1-4)GlcNAc", "outline": "as §1"}, "[31]": {"target": "Neu5Ac(a2-6)Gal(b1-4)GlcNAc(b1-3)Gal(b1-4)GlcNAc(b1-3)Gal(b1-4)GlcNAc(b1-2)Man(a1-3)[Neu5Ac(a2-6)Gal(b1-4)GlcNAc(b1-3)Gal(b1-4)GlcNAc(b1-3)Gal(b1-4)GlcNAc(b1-2)Man(a1-6)]GalNAc", "outline": "as §1"}, "[32]": {"target": "Neu5Ac(a2-6)Gal(b1-4)GlcNAc(b1-3)Gal(b1-4)GlcNAc(b1-3)GalNAc", "outline": "as §1"}, "[33]": {"target": "Neu5Ac(a2-6)Gal(b1-4)GlcNAc(b1-3)Gal(b1-4)GlcNAc(b1-3)[Neu5Ac(a2-6)Gal(b1-4)GlcNAc(b1-3)Gal(b1-4)GlcNAc(b1-6)]GalNAc", "outline": "as §1"}, "[34]": {"target": "Neu5Ac(a2-6)Gal(b1-4)GlcNAc(b1-3)Gal(b1-4)GlcNAc(b1-6)[Gal(b1-3)]GalNAc", "outline": "as §1"}, "[35]": {"target": "Neu5Ac(a2-6)Gal(b1-4)GlcNAc(b1-3)Gal(b1-4)[Fuc(a1-3)]GlcNAc(b1-3)Gal(b1-4)[Fuc(a1-3)]GlcNAc", "outline": "as §1"}, "[36]": {"target": "Neu5Ac(a2-6)Gal(b1-4)GlcNAc(b1-3)GalNAc", "outline": "as §1"}, "[37]": {"target": "Neu5Ac(a2-6)Gal(b1-4)GlcNAc(b1-3)[Neu5Ac(a2-6)Gal(b1-4)GlcNAc(b1-6)]GalNAc", "outline": "as §1"}},
  "note": "The other results are listed elsewhere or left out.",
  "data": [
    {"binder": "Clec18Av1 (Homo sapiens), A5D8T8 (protein) MLHPETSPGRGHLLAVLLALLGTAWAEVWPPQLQEQAPMAGALNRKESFLLLSLHNRLRSWVQPPAADMRRLDWSDSLAQLAQARAALCGTPTPSLASGLWRTLQVGWNMQLLPAGLVSFVEVVSLWFAEGQRYSHAAGECARNATCTHYTQLVWATSSQLGCGRHLCSAGQAAIEAFVCAYSPRGNWEVNGKTIVPYKKGAWCSLCTASVSGCFKAWDHAGGLCEVPRNPCRMSCQNHGRLNISTCHCHCPPGYTGRYCQVRCSLQCVHGRFREEECSCVCDIGYGGAQCATKVHFPFHTCDLRIDGDCFMVSSEADTYYRARMKCQRKGGVLAQIKSQKVQDILAFYLGRLETTNEVIDSDFETRNFWIGLTYKTAKDSFRWATGEHQAFTSFAFGQPDNHGFGNCVELQASAAFNWNDQRCKTRNRYICQFAQEHISRWGPGS", "values": [
      {"measurement": "glycan array binding signal (z-score)", "setting": "[1]", "result": -0.846},
      {"measurement": "glycan array binding signal (z-score)", "setting": "[2]", "result": -0.813},
      {"measurement": "glycan array binding signal (z-score)", "setting": "[3]", "result": 2.19},
      {"measurement": "glycan array binding signal (z-score)", "setting": "[4]", "result": -0.355},
      {"measurement": "glycan array binding signal (z-score)", "setting": "[5]", "result": 2.69},
      {"measurement": "glycan array binding signal (z-score)", "setting": "[6]", "result": -0.853},
      {"measurement": "glycan array binding signal (z-score)", "setting": "[7]", "result": 1.19},
      {"measurement": "glycan array binding signal (z-score)", "setting": "[8]", "result": -0.018},
      {"measurement": "glycan array binding signal (z-score)", "setting": "[9]", "result": -0.776},
      {"measurement": "glycan array binding signal (z-score)", "setting": "[10]", "result": -0.105},
      {"measurement": "glycan array binding signal (z-score)", "setting": "[11]", "result": -0.821},
      {"measurement": "glycan array binding signal (z-score)", "setting": "[12]", "result": -0.503},
      {"measurement": "glycan array binding signal (z-score)", "setting": "[13]", "result": 0.598},
      {"measurement": "glycan array binding signal (z-score)", "setting": "[14]", "result": -0.453},
      {"measurement": "glycan array binding signal (z-score)", "setting": "[15]", "result": -0.604},
      {"measurement": "glycan array binding signal (z-score)", "setting": "[16]", "result": -0.169},
      {"measurement": "glycan array binding signal (z-score)", "setting": "[17]", "result": 0.532},
      {"measurement": "glycan array binding signal (z-score)", "setting": "[18]", "result": 0.043},
      {"measurement": "glycan array binding signal (z-score)", "setting": "[19]", "result": 3.58},
      {"measurement": "glycan array binding signal (z-score)", "setting": "[20]", "result": 0.309},
      {"measurement": "glycan array binding signal (z-score)", "setting": "[21]", "result": 0.445},
      {"measurement": "glycan array binding signal (z-score)", "setting": "[22]", "result": 4.86},
      {"measurement": "glycan array binding signal (z-score)", "setting": "[23]", "result": -0.05},
      {"measurement": "glycan array binding signal (z-score)", "setting": "[24]", "result": 1.65},
      {"measurement": "glycan array binding signal (z-score)", "setting": "[25]", "result": 1.9},
      {"measurement": "glycan array binding signal (z-score)", "setting": "[26]", "result": -0.487},
      {"measurement": "glycan array binding signal (z-score)", "setting": "[27]", "result": -0.587},
      {"measurement": "glycan array binding signal (z-score)", "setting": "[28]", "result": -0.501},
      {"measurement": "glycan array binding signal (z-score)", "setting": "[29]", "result": 1.25},
      {"measurement": "glycan array binding signal (z-score)", "setting": "[30]", "result": -0.526},
      {"measurement": "glycan array binding signal (z-score)", "setting": "[31]", "result": -0.445},
      {"measurement": "glycan array binding signal (z-score)", "setting": "[32]", "result": 0.575},
      {"measurement": "glycan array binding signal (z-score)", "setting": "[33]", "result": -0.003},
      {"measurement": "glycan array binding signal (z-score)", "setting": "[34]", "result": 0.138},
      {"measurement": "glycan array binding signal (z-score)", "setting": "[35]", "result": -0.159},
      {"measurement": "glycan array binding signal (z-score)", "setting": "[36]", "result": 0.25},
      {"measurement": "glycan array binding signal (z-score)", "setting": "[37]", "result": -0.072}
    ]}
  ]
}
